Reference: PubChem BioAssay AID1259405 (NCATS, 2018)

- Screen: 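Mouse-designed siRNAs used to find CHO productivity engineering targets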 (primary screen)
- System: Chinese hamster CHO-K1 ovary cells with stable secreted eGFP expression
- Reagents: single siRNA against mouse genes, 0.8 pmol siRNA per well (2 µl of 400 nM stock)
- Duration: 3 days
- Read-out: 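Percent of the per-plate non-targeting control median for intracellular GFP per well by laser scanning cytometry and for cell viability by ATP luminescence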
- Scale: GFP, % of control: higher = more GFP per well, higher productivity; viability (ATP), % of control: higher = more viable cells (more ATP)
- Rule for the call: 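a knock-down is called active if GFP reaches 120% or more of non-targeting control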
The whole screen tested about 50,000 reagents; this is a random part of them. About 4,000 of them (8%) were called active. 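Mouse siRNA library applied to hamster cells; one well for each siRNA.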 The numbers tell different reagents against one gene apart. Reagent sequences are not shown.

Aqp11 (aquaporin 11) #1 → GFP, % of control = 93; viability (ATP), % of control = 102; activity call = inactive
Aqp11 (aquaporin 11) #2 → GFP, % of control = 61.6; viability (ATP), % of control = 66.1; activity call = inactive
Twf1 (twinfilin actin binding protein 1) #1 → GFP, % of control = 60.5; viability (ATP), % of control = 40.2; activity call = inactive
Twf1 (twinfilin actin binding protein 1) #2 → GFP, % of control = 91.2; viability (ATP), % of control = 81.5; activity call = inactive
Ip6k3 (inositol hexaphosphate kinase 3) → GFP, % of control = 61.9; viability (ATP), % of control = 61.1; activity call = inactive
Lamtor1 (late endosomal/lysosomal adaptor, MAPK and MTOR activator 1) #1 → GFP, % of control = 95.7; viability (ATP), % of control = 71.3; activity call = inactive
Lamtor1 (late endosomal/lysosomal adaptor, MAPK and MTOR activator 1) #2 → GFP, % of control = 118; viability (ATP), % of control = 79.8; activity call = inactive
Lamtor1 (late endosomal/lysosomal adaptor, MAPK and MTOR activator 1) #3 → GFP, % of control = 68.9; viability (ATP), % of control = 61.3; activity call = inactive
Il27ra (interleukin 27 receptor, alpha) #1 → GFP, % of control = 94.2; viability (ATP), % of control = 85; activity call = inactive
Il27ra (interleukin 27 receptor, alpha) #2 → GFP, % of control = 70.2; viability (ATP), % of control = 47.7; activity call = inactive
Il27ra (interleukin 27 receptor, alpha) #3 → GFP, % of control = 74.2; viability (ATP), % of control = 32.7; activity call = inactive
Dtymk (deoxythymidylate kinase) → GFP, % of control = 95.4; viability (ATP), % of control = 91.2; activity call = inactive
Klkb1 (kallikrein B, plasma 1) #1 → GFP, % of control = 47.7; viability (ATP), % of control = 70.3; activity call = inactive
Klkb1 (kallikrein B, plasma 1) #2 → GFP, % of control = 38.2; viability (ATP), % of control = 39.8; activity call = inactive
Klkb1 (kallikrein B, plasma 1) #3 → GFP, % of control = 57.3; viability (ATP), % of control = 74.6; activity call = inactive
Olah (oleoyl-ACP hydrolase) #1 → GFP, % of control = 85.5; viability (ATP), % of control = 69.5; activity call = inactive
Olah (oleoyl-ACP hydrolase) #2 → GFP, % of control = 32.9; viability (ATP), % of control = 35.4; activity call = inactive
Olah (oleoyl-ACP hydrolase) #3 → GFP, % of control = 73.2; viability (ATP), % of control = 56.8; activity call = inactive
Pex14 (peroxisomal biogenesis factor 14) #1 → GFP, % of control = 93.2; viability (ATP), % of control = 132; activity call = inactive
Pex14 (peroxisomal biogenesis factor 14) #2 → GFP, % of control = 93.6; viability (ATP), % of control = 64.3; activity call = inactive
Mrpl58 (mitochondrial ribosomal protein L58) #1 → GFP, % of control = 65.8; viability (ATP), % of control = 79.3; activity call = inactive
Mrpl58 (mitochondrial ribosomal protein L58) #2 → GFP, % of control = 43.4; viability (ATP), % of control = 44.5; activity call = inactive
Mrpl58 (mitochondrial ribosomal protein L58) #3 → GFP, % of control = 67; viability (ATP), % of control = 84.7; activity call = inactive
Sprr4 (small proline-rich protein 4) #1 → GFP, % of control = 51.6; viability (ATP), % of control = 68.2; activity call = inactive
Sprr4 (small proline-rich protein 4) #2 → GFP, % of control = 121; viability (ATP), % of control = 126; activity call = active
Or6c69b (olfactory receptor family 6 subfamily C member 69B) #1 → GFP, % of control = 69.1; viability (ATP), % of control = 38.7; activity call = inactive
Or6c69b (olfactory receptor family 6 subfamily C member 69B) #2 → GFP, % of control = 31.4; viability (ATP), % of control = 23.5; activity call = inactive
Or6c69b (olfactory receptor family 6 subfamily C member 69B) #3 → GFP, % of control = 83.7; viability (ATP), % of control = 99.5; activity call = inactive
Ctnnd1 (catenin delta 1) #1 → GFP, % of control = 70.7; viability (ATP), % of control = 93.1; activity call = inactive
Ctnnd1 (catenin delta 1) #2 → GFP, % of control = 147; viability (ATP), % of control = 98.5; activity call = active
Ctnnd1 (catenin delta 1) #3 → GFP, % of control = 63.5; viability (ATP), % of control = 74.4; activity call = inactive
Tas2r110 (taste receptor, type 2, member 110) #1 → GFP, % of control = 79.7; viability (ATP), % of control = 85.1; activity call = inactive
Tas2r110 (taste receptor, type 2, member 110) #2 → GFP, % of control = 92.6; viability (ATP), % of control = 102; activity call = inactive
Tas2r110 (taste receptor, type 2, member 110) #3 → GFP, % of control = 110; viability (ATP), % of control = 128; activity call = inactive
Gast (gastrin) #1 → GFP, % of control = 81.1; viability (ATP), % of control = 83.8; activity call = inactive
Gast (gastrin) #2 → GFP, % of control = 41.8; viability (ATP), % of control = 46.4; activity call = inactive
Gast (gastrin) #3 → GFP, % of control = 66.8; viability (ATP), % of control = 59.7; activity call = inactive
Ldb3 (LIM domain binding 3) #1 → GFP, % of control = 41.6; viability (ATP), % of control = 53.3; activity call = inactive
Ldb3 (LIM domain binding 3) #2 → GFP, % of control = 78.6; viability (ATP), % of control = 54.4; activity call = inactive
Vmn1r16 (vomeronasal 1 receptor 16) #1 → GFP, % of control = 75.9; viability (ATP), % of control = 61; activity call = inactive
Vmn1r16 (vomeronasal 1 receptor 16) #2 → GFP, % of control = 42.9; viability (ATP), % of control = 42.4; activity call = inactive
Vmn1r16 (vomeronasal 1 receptor 16) #3 → GFP, % of control = 59.7; viability (ATP), % of control = 96.8; activity call = inactive

Sorted by “viability (ATP), % of control” (lowest first): 5 of the entries above.
Mrpl58 (mitochondrial ribosomal protein L58) #2 → GFP, % of control = 43.4; viability (ATP), % of control = 44.5; activity call = inactive
Olah (oleoyl-ACP hydrolase) #3 → GFP, % of control = 73.2; viability (ATP), % of control = 56.8; activity call = inactive
Pex14 (peroxisomal biogenesis factor 14) #2 → GFP, % of control = 93.6; viability (ATP), % of control = 64.3; activity call = inactive
Mrpl58 (mitochondrial ribosomal protein L58) #1 → GFP, % of control = 65.8; viability (ATP), % of control = 79.3; activity call = inactive
Pex14 (peroxisomal biogenesis factor 14) #1 → GFP, % of control = 93.2; viability (ATP), % of control = 132; activity call = inactive
